This note sets out measurements from article PMC5663877.

Protein sequences, listed by entry. Tags and fused reporters are not part of them.
UniProt Q03135: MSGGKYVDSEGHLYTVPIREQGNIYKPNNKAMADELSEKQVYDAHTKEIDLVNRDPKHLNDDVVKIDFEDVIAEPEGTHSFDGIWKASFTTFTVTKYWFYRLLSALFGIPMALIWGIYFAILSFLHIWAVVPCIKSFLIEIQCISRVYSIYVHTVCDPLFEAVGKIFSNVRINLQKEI

For the assay, the target named is T1, Cavin-2-mEGFP (UniProt O95810).
T1 sequence: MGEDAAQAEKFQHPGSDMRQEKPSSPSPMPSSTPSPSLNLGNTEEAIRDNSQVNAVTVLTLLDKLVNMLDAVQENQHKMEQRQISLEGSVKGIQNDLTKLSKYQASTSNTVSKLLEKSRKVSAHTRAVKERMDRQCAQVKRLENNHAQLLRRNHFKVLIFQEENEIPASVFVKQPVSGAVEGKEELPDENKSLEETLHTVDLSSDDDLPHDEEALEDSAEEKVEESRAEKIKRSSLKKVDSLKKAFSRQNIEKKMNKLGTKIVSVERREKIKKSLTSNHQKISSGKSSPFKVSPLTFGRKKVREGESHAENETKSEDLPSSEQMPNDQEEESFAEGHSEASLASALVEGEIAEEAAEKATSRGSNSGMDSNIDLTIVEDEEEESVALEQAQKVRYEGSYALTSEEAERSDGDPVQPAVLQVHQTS
In words: co-IP; Cavin-2-GFP or GFP expressed in HPMEC-ST1.6R; immunoprecipitation with anti-GFP antibody from whole cell lysate at the basal state; RIPA buffer (10 mM Tris-HCl, 1 mM EDTA, 1% Nonidet P-40, 0.1% sodium deoxycholate, 140 mM NaCl); blots for eNOS, Caveolin-1 and GFP.

No constants are given. Whether binding was seen depends on the method and setting. Binding seen in cells or lysates may run through a third protein. Some binding calls cover weakened binding; strength is not graded here. Where a sequence is shown, tags or fusion partners need not be part of it.

Consider Caveolin-1 (from UniProt Q03135 1-178), for which the binding result is given as “binds”.
